Reference: PMC9098913, “In vitro reconstitution of Escherichia coli divisome activation” (Nature Communications, 2022)

Assay: Diffusion coefficient of His-tagged FtsAs and His-SUMO on Tris-NTA membranes (FRAP)
Procedure: To study colocalization of His-tagged variants of FtsA, 0.5–1 µM of Cy5 labelled His-tagged FtsAs were added to the chamber, incubated for 20 min and washed 6x with reaction buffer. […] To control the density of membrane-bound FtsA, SUVs without and with Tris-NTA lipids were mixed to obtain the respective Tris-NTA concentrations. To perform FRET/FRAP experiments, equimolar concentrations of Cy3 and Cy5 labelled His-tagged FtsAs (total 0.5–1 µM) or His-SUMO-Cys were added to a chamber and treated as above. […] FRAP experiments were performed as described before.
Bleaching the acceptor dye leads to an increase in the donor intensity, which can be used to quantify the Foerster Resonance energy transfer (FRET)[48]. FRET efficiency was quantified with E%=Ipost/Ipost+Ipre⋅100 , where Ipost is the intensity of the […] and Ipre is the […]. […] To extract the contribution of both processes, we adjusted a routine recently published by Gerganova et al.[33]. In short, the code provides the contribution of both modes of recovery by analysing the shape of the fluorescence recovery profile. […] Contribution of diffusion leads to a change of the slope of the outer borders of the bleached region (S4h right). Thus, by measuring the change of the slope of the border recovery, diffusion and simple on/off binding can be distinguished. We developed “FRAPdiff”, a graphical user interface, which uses the original fit routine by David Rutkowski. It can be used directly on.tiff movies with annotated bleach regions as ImageJ ROIs. In addition, we added optional bleach correction, user selectable projection axis (x or y), and optional mirroring of the recovery profiles, if bleaching was not symmetric. The original fit routine for estimating the recovery and diffusion dynamics can be found at https://github.com/davidmrutkowski/1DReflectingDiffusion. FRAPdiff is available at 10.5281/zenodo.6400639[49] under the GPLv3 open-source license.

[1] = 2% Tris NTA, + FtsZ, Mean (WT-His6 n = 3, sd 0.000285; R286W-His6 n = 2, sd 0.01)
[2] = 2% Tris NTA, without FtsZ, Mean, n = 4 (sd WT-His6 0.01; R286W-His6 0.0184; His6-SUMO 0.0247)
[3] = […] Tris NTA, + FtsZ, Mean (WT-His6 n = 5, sd 0.00322; R286W-His6 n = 6, sd 0.04)
[4] = […] Tris NTA, without FtsZ, Mean (WT-His6 n = 5, sd 0.00794; R286W-His6 n = 6, sd 0.0855)

## FtsA-His6: FtsA WT (1-405) with amphipathic helix replaced by C-terminal His-tag
[1]
  Diffusion Coefficient: 0.000263 µm2/s
[2]
  Diffusion Coefficient: 0.00604 µm2/s
[3]
  Diffusion Coefficient: 0.00246 µm2/s
[4]
  Diffusion Coefficient: 0.00595 µm2/s

B1: FtsA R286W-His6: FtsA R286W (1-405) with amphipathic helix replaced by C-terminal His-tag (protein)
chain: MIKATDRKLVVGLEIGTAKVAALVGEVLPDGMVNIIGVGSCPSRGMDKGGVNDLESVVKCVQRAIDQAELMADCQISSVYLALSGKHISCQNEIGMVPISEEEVTQEDVENVVHTAKSVRVRDEHRVLHVIPQEYAIDYQEGIKNPVGLSGVRMQAKVHLITCHNDMAKNIVKAVERCGLKVDQLIFAGLASSYSVLTEDERELGVCVVDIGGGTMDIAVYTGGALRHTKVIPYAGNVVTSDIAYAFGTPPSDAEAIKVRHGCALGSIVGKDESVEVPSVGGRPPWSLQRQTLAEVIEPRYTELLNLVNEEILQLQEKLRQQGVKHHLAAGIVLTGGAAQIEGLAACAQRVFHTQVRIGAPLNITGLTDYAQEPYYSTAVGLLHYGKESHLNGEAEVEKRVTASV
modifications: Cy3 or Cy5 at the N-terminus in the labelled form (sortagging as for native FtsA); left off: TwinStrep-SUMO, N-terminal, cleaved | 5xGlycine tag, N-terminal, kept | His6, C-terminal, kept
[1]
  Diffusion Coefficient: 0.02 µm2/s
2% Tris NTA, + FtsZ, replicate Exp1
  Diffusion Coefficient: 0.0107 µm2/s
2% Tris NTA, + FtsZ, replicate Exp2
  Diffusion Coefficient: 0.03 µm2/s
[2]
  Diffusion Coefficient: 0.035 µm2/s
2% Tris NTA, without FtsZ, replicate Exp1
  Diffusion Coefficient: 0.06 µm2/s
2% Tris NTA, without FtsZ, replicate Exp2
  Diffusion Coefficient: 0.04 µm2/s
2% Tris NTA, without FtsZ, replicate Exp3
  Diffusion Coefficient: 0.02 µm2/s
2% Tris NTA, without FtsZ, replicate Exp4
  Diffusion Coefficient: 0.0169 µm2/s
[3]
  Diffusion Coefficient: 0.0529 µm2/s
[…] Tris NTA, + FtsZ, replicate Exp1
  Diffusion Coefficient: 0.04 µm2/s
[…] Tris NTA, + FtsZ, replicate Exp2
  Diffusion Coefficient: 1.5e-5 µm2/s
[…] Tris NTA, + FtsZ, replicate Exp3
  Diffusion Coefficient: 0.0128 µm2/s
[…] Tris NTA, + FtsZ, replicate Exp4
  Diffusion Coefficient: 0.10 µm2/s
[…] Tris NTA, + FtsZ, replicate Exp5
  Diffusion Coefficient: 0.09 µm2/s
[…] Tris NTA, + FtsZ, replicate Exp6
  Diffusion Coefficient: 0.08 µm2/s
[4]
  Diffusion Coefficient: 0.15 µm2/s
[…] Tris NTA, without FtsZ, replicate Exp1
  Diffusion Coefficient: 0.03 µm2/s
[…] Tris NTA, without FtsZ, replicate Exp2
  Diffusion Coefficient: 0.26 µm2/s
[…] Tris NTA, without FtsZ, replicate Exp3
  Diffusion Coefficient: 0.07 µm2/s
[…] Tris NTA, without FtsZ, replicate Exp4
  Diffusion Coefficient: 0.14 µm2/s
[…] Tris NTA, without FtsZ, replicate Exp5
  Diffusion Coefficient: 0.16 µm2/s
[…] Tris NTA, without FtsZ, replicate Exp6
  Diffusion Coefficient: 0.26 µm2/s
